Data published in the supplement of paper PMC7824004.
Some of the results follow. The data scatter; read single values as rough.

What follows are compounds tested on Candida albicans SN425 (assay: biofilm OD600 B-score; higher = more biofilm (less inhibition)). Details: 10 µM; assay detail: High-throughput adherence inhibition optical density biofilm assay with C. albicans SN425 in RPMI-1640/MOPS pH 7.0, 384-well plates. ….
Experimental: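 High-throughput adherence inhibition optical density biofilm assay with C. albicans SN425 in RPMI-1640/MOPS pH 7.0, 384-well plates. Compound (10 µM) was present only during the 90 min adherence step, then washed out, and the biofilm grew 24 h without compound. Biofilm was read as OD600 after removing the media. Scores are the difference from the mean in standard deviations and the plate B-score.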

Compound	biofilm OD600 B-score
O=C(Cc1cccs1)NCc1ccccc1Cl	0.533
CC(=O)Nc1nnc(SCC(=O)N2CCCCC2)s1	0.485
O=C1CC(c2ccccc2)CN1C(=O)c1ccccc1 (stereo not given)	-0.998
CN(C)c1ccc(N2CC(C(=O)O)CC2=O)cc1 (stereo not given)	-0.00344
O=C(NN1CCOCC1)c1ccc(Cl)cc1Cl	-1.04
O=C(O)CCCNC(=O)c1ccncc1	-0.0153
CCOc1ccccc1OCCOCCN1CC(C)OC(C)C1 (stereo not given)	-2.41
O=C1CN(c2nc(-c3ccc(Cl)cc3)cs2)CCN1	3.63
O=C(O)C1CCCCC1C(=O)NCc1ccc(Cl)cc1 (stereo not given)	-1.28
COc1ccc(N2CCN(Cc3cccc(OC)c3OC)CC2)cc1	-1.62
COc1c[nH]n(C2CCCCC2)c(=O)c1=O	-1.52
O=C(Nc1ccc2snnc2c1)N1CCN(c2ccccc2)CC1	-2.01
CC1(C)CC(C#N)(N2CCOCC2)CCO1 (stereo not given)	0.476
OCCOCCN1CCN(Cc2ccc(Cl)cc2)CC1	0.594
C/C=C(\C)CN1CCN(CCOCCO)CC1	0.517
NS(=O)(=O)c1ccc(CNC(=O)COc2ccc(Cl)cc2)cc1	-1.54
Cc1ccc(C(=O)NCCSc2ccccn2)cc1	-0.0356
CCC1CCC(NCc2cccc(OC)c2OC)CC1 (stereo not given)	3.17
O=C(c1cc2ccccc2o1)N1CCOCC1	0.478
O=C(CSc1ccccn1)NC1CC1	1.44

As entered above.
In biofilm OD600 B-score, `O=C(c1cc2ccccc2o1)N1CCOCC1` has the entry 0.478
In biofilm OD600 B-score, `C/C=C(\C)CN1CCN(CCOCCO)CC1` has the entry 0.517
In biofilm OD600 B-score, `NS(=O)(=O)c1ccc(CNC(=O)COc2ccc(Cl)cc2)cc1` has the entry -1.54

The list goes on:

Compound	biofilm OD600 B-score
CCN1CCN(CC2CC3C=CC2C3)CC1 (stereo not given)	-1
COc1ccccc1Cc1nc(-c2ccncc2)no1	-2.27
OC1(C#CCN2CCOCC2)CCCCC1	1.81
OC(COc1ccc(Br)cc1)CN1CCOCC1 (stereo not given)	0.61
CCC(CC)C(=O)NCc1ccncc1	-0.0225
O=C(O)C1C2C=CC(C2)C1C(=O)NCC1CCCO1 (stereo not given)	-1.11
CN(C)CCN(C)Cc1cccc(Br)c1	-0.413
Cc1ccc(COC(=O)NCc2cccnc2)cc1	0.867
Cc1cc(C)c(NC(=O)CCCC(=O)O)c(C)c1	-3.31
NC(=O)C1CCN(CC(=O)Nc2ccc(Br)cc2)CC1	1.14
CC1(C)CC(CCN)(c2ccc(F)cc2)CCO1 (stereo not given)	1.67
Cc1ccc(OCC(=O)Nc2ccccc2N2CCOCC2)cc1	0.536
CC(NC(=O)COc1ccc(Cl)cc1)C(=O)O (stereo not given)	-0.0799
COc1ccc2c(CC#N)c[nH]c2c1	-1.28
CSc1ccccc1C(=O)Nc1cccnc1	-0.254
O=C(Nc1nc2ccccc2[nH]1)c1ccc2c(c1)OCO2	1.9
CC(=O)Nc1ccc(CN2CCN(c3ccc(Cl)cc3)CC2)cc1	-0.752
O=C(Nc1nncs1)c1ccc(Oc2ccccc2)cc1	4.7
Cc1cccc(NC(=O)CCN2CCOCC2)c1	-3.01
COc1ccc(CN2CCc3ccccc3C2)c(OC)c1OC	-1.97
